Taken from: PubChem BioAssay AID1259425 (University of Nebraska Medical Center, 2018)
Test: 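Compare each knockdown with KSR1 silencing using changes in marker transcripts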 (primary screen). Cells: HCT116 human colon cancer cells. Reagent: siRNA pool against human genes, 50 nM siRNA. Measured: 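After 50 nM siRNA pool, branched-DNA assay measures six marker transcripts per well, minus blank, normalised to the geometric mean of two housekeeping transcripts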. Direction: BNIP3L mRNA: higher = more BNIP3L transcript after knockdown; NDRG1 mRNA: higher = more NDRG1 transcript after knockdown; BNIP3 mRNA: higher = more BNIP3 transcript after knockdown; ALDOC mRNA: higher = more ALDOC transcript after knockdown; ACSL5 mRNA: higher = more ACSL5 transcript after knockdown.
Here is a random part of about 14,000 reagents tested. The record does not give: the time to read-out.

| gene symbol | BNIP3L mRNA, set 1 | NDRG1 mRNA, set 1 | BNIP3 mRNA, set 1 | ALDOC mRNA, set 1 | ACSL5 mRNA, set 1 |
| --- | --- | --- | --- | --- | --- |
| TBCE | 0.112 | 0.15 | 0.192 | 0.0268 | 0.11 |
| KRT32 | 0.0783 | 0.142 | 0.285 | 0.0233 | 0.121 |
| TCERG1 | 0.131 | 0.0873 | 0.282 | 0.0252 | 0.166 |
| WDR35 | 0.109 | 0.15 | 0.382 | 0.0264 | 0.174 |
| STXBP6 | 0.119 | 0.202 | 0.274 | 0.036 | 0.142 |
| PODNL1 | 0.131 | 0.217 | 0.422 | 0.0733 | 0.112 |
| TBX2 | 0.0914 | 0.0462 | 0.277 | 0.0099 | 0.138 |
| PPP2R3A | 0.0408 | 0.0633 | 0.212 | 0.0108 | 0.218 |
| RHEB | 0.0373 | 0.645 | 0.284 | 0.0317 | 0.37 |
| PLXNC1 | 0.142 | 0.0411 | 0.287 | 0.0188 | 0.14 |
| EZH1 | 0.32 | 0.182 | 0.78 | 0.067 | 0.137 |
| RPS23 | 0.0776 | 0.146 | 0.323 | 0.0135 | 0.117 |
| GPC3 | 0.143 | 0.434 | 0.585 | 0.0585 | 0.249 |
| MPP4 | 0.122 | 0.0612 | 0.442 | 0.0301 | 0.138 |
| CGB3 | 0.111 | 0.193 | 0.189 | 0.0309 | 0.269 |
| DLX6 | 0.126 | 0.0718 | 0.252 | 0.0103 | 0.146 |
| BCO1 | 0.0925 | 0.123 | 0.271 | 0.021 | 0.14 |
| KLK6 | 0.0903 | 0.886 | 0.395 | 0.028 | 0.498 |
| ABCD4 | 0.0941 | 0.231 | 0.257 | 0.0116 | 0.15 |
| JAM3 | 0.291 | 0.232 | 0.342 | 0.14 | 0.304 |
| AIFM1 | 0.155 | 0.186 | 0.31 | 0.0138 | 0.341 |
| PEMT | 0.139 | 0.249 | 0.46 | 0.0493 | 0.141 |

Next part (5 carried over from the part before).
| gene symbol | BNIP3L mRNA, set 1 | NDRG1 mRNA, set 1 | BNIP3 mRNA, set 1 | ALDOC mRNA, set 1 | ACSL5 mRNA, set 1 |
| --- | --- | --- | --- | --- | --- |
| KLK6 | 0.0903 | 0.886 | 0.395 | 0.028 | 0.498 |
| ABCD4 | 0.0941 | 0.231 | 0.257 | 0.0116 | 0.15 |
| JAM3 | 0.291 | 0.232 | 0.342 | 0.14 | 0.304 |
| AIFM1 | 0.155 | 0.186 | 0.31 | 0.0138 | 0.341 |
| PEMT | 0.139 | 0.249 | 0.46 | 0.0493 | 0.141 |
| OTOA | 0.0946 | 0.167 | 0.219 | 0.0133 | 0.144 |
| SP7 | 0.138 | 0.496 | 0.143 | 0.0348 | 0.121 |
| PSMD10 | 0.0769 | 0.62 | 0.265 | 0.0491 | 0.404 |
| MYL5 | 0.274 | 0.46 | 0.727 | 0.0693 | 0.194 |
| PARP10 | 0.2 | 0.0999 | 0.228 | 0.0549 | 0.157 |
| NAT2 | 0.103 | 0.184 | 0.349 | 0.0342 | 0.148 |
| SRY | 0.243 | 0.229 | 0.367 | 0.0168 | 0.215 |
| PDPK1 | 0.116 | 0.147 | 0.319 | 0.0193 | 0.379 |
| PCOLCE2 | 0.214 | 0.373 | 0.301 | 0.0417 | 0.33 |
| BMP7 | 0.107 | 0.322 | 0.0964 | 0.05 | 0.0806 |
| SLC25A14 | 0.153 | 0.328 | 0.276 | 0.0601 | 0.0762 |
| PDZK1IP1 | 0.139 | 0.286 | 0.349 | 0.0187 | 0.249 |
| CELF5 | 0.144 | 0.38 | 0.3 | 0.0313 | 0.204 |
| GSN | 0.113 | 0.451 | 0.441 | 0.0126 | 0.328 |
| KATNIP | 0.149 | 0.403 | 0.563 | 0.0562 | 0.162 |
| RNLS | 0.199 | 0.515 | 0.509 | 0.0198 | 0.326 |
| DRAM1 | 0.0892 | 0.164 | 0.355 | 0.0235 | 0.174 |
| HEMGN | 0.178 | 2.68 | 0.362 | 0.00954 | 0.463 |
| CKMT2 | 0.126 | 0.146 | 0.245 | 0.0056 | 0.223 |
| ANXA2P1 | 0.296 | 0.654 | 0.695 | 0.0665 | 0.124 |
| ZBTB45 | 0.127 | 0.0705 | 0.209 | 0.0216 | 0.126 |
| PDE4A | 0.0803 | 0.329 | 0.213 | 0.0377 | 0.125 |
| EDDM3A | 0.101 | 0.104 | 0.316 | 0.0159 | 0.292 |
| MAP4K1 | 0.207 | 0.293 | 0.496 | 0.0124 | 0.478 |
| CCNI | 0.203 | 0.133 | 0.169 | 0.0429 | 0.287 |
| MT3 | 0.0778 | 0.155 | 0.377 | 0.0164 | 0.127 |
| CEMIP2 | 0.122 | 0.389 | 0.467 | 0.0268 | 0.282 |
| CKAP4 | 0.154 | 0.632 | 0.233 | 0.0641 | 0.0662 |
